Results are given in words; binding and its absence hold for the method and conditions named. For part of these data: In cells and extracts the contact can be indirect. Some binding calls cover weakened binding; strength is not graded here.

Chains of the proteins cited; added tags and fusions are not shown. Lines headed by an entry give the natural chain unless they say otherwise; changes in a name come on top. A line that says so, or that is headed by a name, gives the form on record, which may keep a tag or linker.
UniProt Q9Y4G2: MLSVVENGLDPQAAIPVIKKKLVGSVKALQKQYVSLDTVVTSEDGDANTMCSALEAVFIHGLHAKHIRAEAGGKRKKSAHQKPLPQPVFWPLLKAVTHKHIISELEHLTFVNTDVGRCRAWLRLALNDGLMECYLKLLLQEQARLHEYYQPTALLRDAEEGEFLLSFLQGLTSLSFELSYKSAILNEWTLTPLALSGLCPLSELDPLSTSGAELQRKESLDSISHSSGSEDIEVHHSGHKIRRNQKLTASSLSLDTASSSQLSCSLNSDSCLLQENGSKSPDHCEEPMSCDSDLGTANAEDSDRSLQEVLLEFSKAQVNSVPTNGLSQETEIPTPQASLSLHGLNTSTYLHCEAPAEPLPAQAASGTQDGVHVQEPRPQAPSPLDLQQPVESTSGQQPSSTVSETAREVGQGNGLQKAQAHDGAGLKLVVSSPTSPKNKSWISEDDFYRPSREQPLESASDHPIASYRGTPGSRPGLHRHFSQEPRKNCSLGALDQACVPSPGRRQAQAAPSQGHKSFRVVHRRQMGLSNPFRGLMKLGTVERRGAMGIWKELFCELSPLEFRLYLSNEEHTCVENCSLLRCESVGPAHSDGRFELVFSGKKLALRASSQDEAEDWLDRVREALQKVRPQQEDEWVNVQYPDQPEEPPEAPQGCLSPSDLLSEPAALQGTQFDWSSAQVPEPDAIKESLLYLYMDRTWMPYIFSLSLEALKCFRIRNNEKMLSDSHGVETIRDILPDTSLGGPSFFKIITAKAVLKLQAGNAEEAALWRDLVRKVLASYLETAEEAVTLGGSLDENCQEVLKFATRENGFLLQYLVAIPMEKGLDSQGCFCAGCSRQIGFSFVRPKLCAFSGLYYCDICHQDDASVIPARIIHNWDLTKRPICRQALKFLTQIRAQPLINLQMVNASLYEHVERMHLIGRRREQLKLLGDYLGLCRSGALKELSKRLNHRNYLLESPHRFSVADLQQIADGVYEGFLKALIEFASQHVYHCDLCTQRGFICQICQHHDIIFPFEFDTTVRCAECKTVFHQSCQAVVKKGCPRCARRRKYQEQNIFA
PLEKHM1 (HRR→A) (construct of Fig. S3 b–d not shown) (Q9Y4G2, form named): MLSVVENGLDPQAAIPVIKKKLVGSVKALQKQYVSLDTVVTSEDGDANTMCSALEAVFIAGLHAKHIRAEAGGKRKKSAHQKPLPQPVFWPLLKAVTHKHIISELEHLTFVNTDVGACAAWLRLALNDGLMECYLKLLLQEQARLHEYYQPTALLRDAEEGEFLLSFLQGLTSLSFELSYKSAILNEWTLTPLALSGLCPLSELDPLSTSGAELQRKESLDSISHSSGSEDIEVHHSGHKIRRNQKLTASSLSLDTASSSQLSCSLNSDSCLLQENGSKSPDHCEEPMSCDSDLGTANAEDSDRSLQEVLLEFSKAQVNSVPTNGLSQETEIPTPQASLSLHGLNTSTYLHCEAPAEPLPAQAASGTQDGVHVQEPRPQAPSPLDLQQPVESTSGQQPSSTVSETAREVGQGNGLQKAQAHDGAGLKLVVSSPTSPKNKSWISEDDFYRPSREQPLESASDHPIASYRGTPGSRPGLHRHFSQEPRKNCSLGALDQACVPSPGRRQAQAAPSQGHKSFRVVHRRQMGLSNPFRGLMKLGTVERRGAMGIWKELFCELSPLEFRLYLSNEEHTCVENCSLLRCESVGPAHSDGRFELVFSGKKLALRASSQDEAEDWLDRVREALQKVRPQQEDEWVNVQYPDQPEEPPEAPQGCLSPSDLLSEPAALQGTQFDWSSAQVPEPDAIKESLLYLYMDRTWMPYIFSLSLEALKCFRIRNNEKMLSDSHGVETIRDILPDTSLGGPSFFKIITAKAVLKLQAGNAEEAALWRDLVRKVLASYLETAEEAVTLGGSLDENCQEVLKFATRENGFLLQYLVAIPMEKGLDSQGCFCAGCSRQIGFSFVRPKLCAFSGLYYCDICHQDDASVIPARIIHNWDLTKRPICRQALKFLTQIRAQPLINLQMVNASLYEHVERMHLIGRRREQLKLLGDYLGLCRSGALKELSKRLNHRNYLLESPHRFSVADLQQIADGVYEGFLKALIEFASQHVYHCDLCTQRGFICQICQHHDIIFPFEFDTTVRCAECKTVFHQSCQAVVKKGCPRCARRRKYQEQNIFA

In assay [1] the target is full-length PLEKHM1 (UniProt Q9Y4G2). Nature of the assay: two-hybrid; GAL4-AD and GAL4-BD fusions co-transformed in S. cerevisiae Gold or AH109; growth on -Leu-Trp-His medium, 30°C.
Assay [2] concerns the target full-length PLEKHM1, Q9Y4G2. The assay is described as above. The note with it: remark: other sources report otherwise.
Assay [3] addresses PLEKHM1 (HRR→A) (construct of Fig. S3 b–d not shown) (UniProt Q9Y4G2). The assay can be described thus: co-IP; Fig. S3 d; PLEKHM1 WT or HRR→A as bait; details not shown.
Assay [4] has as its target PLEKHM1 (WT; construct of Fig. S1 b–e and Fig. S3 d not shown) (UniProt Q9Y4G2). The description is as above.
The target in assay [5] is FLAG-PLEKHM1 (WT) (UniProt Q9Y4G2). The assay can be described thus: co-IP; HEK293T cells treated with control- or Arl8b-siRNA and expressing FLAG-PLEKHM1; anti-FLAG antibody resin; immunoblot.

B1: Vps18 (protein, UniProt Q9P253 1-973)
chain: MASILDEYENSLSRSAVLQPGCPSVGIPHSGYVNAQLEKEVPIFTKQRIDFTPSERITSLVVSSNQLCMSLGKDTLLRIDLGKANEPNHVELGRKDDAKVHKMFLDHTGSHLLIALSSTEVLYVNRNGQKVRPLARWKGQLVESVGWNKALGTESSTGPILVGTAQGHIFEAELSASEGGLFGPAPDLYFRPLYVLNEEGGPAPVCSLEAERGPDGRSFVIATTRQRLFQFIGRAAEGAEAQGFSGLFAAYTDHPPPFREFPSNLGYSELAFYTPKLRSAPRAFAWMMGDGVLYGALDCGRPDSLLSEERVWEYPEGVGPGASPPLAIVLTQFHFLLLLADRVEAVCTLTGQVVLRDHFLEKFGPLKHMVKDSSTGQLWAYTERAVFRYHVQREARDVWRTYLDMNRFDLAKEYCRERPDCLDTVLAREADFCFRQRRYLESARCYALTQSYFEEIALKFLEARQEEALAEFLQRKLASLKPAERTQATLLTTWLTELYLSRLGALQGDPEALTLYRETKECFRTFLSSPRHKEWLFASRASIHELLASHGDTEHMVYFAVIMQDYERVVAYHCQHEAYEEALAVLARHRDPQLFYKFSPILIRHIPRQLVDAWIEMGSRLDARQLIPALVNYSQGGEVQQVSQAIRYMEFCVNVLGETEQAIHNYLLSLYARGRPDSLLAYLEQAGASPHRVHYDLKYALRLCAEHGHHRACVHVYKVLELYEEAVDLALQVDVDLAKQCADLPEEDEELRKKLWLKIARHVVQEEEDVQTAMACLASCPLLKIEDVLPFFPDFVTIDHFKEAICSSLKAYNHHIQELQREMEEATASAQRIRRDLQELRGRYGTVEPQDKCATCDFPLLNRPFYLFLCGHMFHADCLLQAVRPGLPAYKQARLEELQRKLGAAPPPAKGSARAKEAEGGAATAGPSREQLKADLDELVAAECVYCGELMIRSIDRPFIDPQRYEEEQLSWL
As for B1, in assay [1], the binding result is “binds weakly”.

B2: Vps41, P49754 1-854 (protein)
chain: MAEAEEQETGSLEESTDESEEEESEEEPKLKYERLSNGVTEILQKDAASCMTVHDKFLALGTHYGKVYLLDVQGNITQKFDVSPVKINQISLDESGEHMGVCSEDGKVQVFGLYSGEEFHETFDCPIKIIAVHPHFVRSSCKQFVTGGKKLLLFERSWMNRWKSAVLHEGEGNIRSVKWRGHLIAWANNMGVKIFDIISKQRITNVPRDDISLRPDMYPCSLCWKDNVTLIIGWGTSVKVCSVKERHASEMRDLPSRYVEIVSQFETEFYISGLAPLCDQLVVLSYVKEISEKTEREYCARPRLDIIQPLSETCEEISSDALTVRGFQENECRDYHLEYSEGESLFYIVSPRDVVVAKERDQDDHIDWLLEKKKYEEALMAAEISQKNIKRHKILDIGLAYINHLVERGDYDIAARKCQKILGKNAALWEYEVYKFKEIGQLKAISPYLPRGDPVLKPLIYEMILHEFLESDYEGFATLIREWPGDLYNNSVIVQAVRDHLKKDSQNKTLLKTLAELYTYDKNYGNALEIYLTLRHKDVFQLIHKHNLFSSIKDKIVLLMDFDSEKAVDMLLDNEDKISIKKVVEELEDRPELQHVYLHKLFKRDHHKGQRYHEKQISLYAEYDRPNLLPFLRDSTHCPLEKALEICQQRNFVEETVYLLSRMGNSRSALKMIMEELHDVDKAIEFAKEQDDGELWEDLILYSIDKPPFITGLLNNIGTHVDPILLIHRIKEGMEIPNLRDSLVKILQDYNLQILLREGCKKILVADSLSLLKKMHRTQMKGVLVDEENICESCLSPILPSDAAKPFSVVVFHCRHMFHKECLPMPSMNSAAQFCNICSAKNRGPGSAILEMKK
Take B2: the binding entry in assay [2] is reported as “no binding”.

B3: Vps39 (protein, UniProt Q96JC1 1-886)
chain: MHDAFEPVPILEKLPLQIDCLAAWEEWLLVGTKQGHLLLYRIRKDVVPADVASPESGSCNRFEVTLEKSNKNFSKKIQQIHVVSQFKILVSLLENNIYVHDLLTFQQITTVSKAKGASLFTCDLQHTETGEEVLRMCVAVKKKLQLYFWKDREFHELQGDFSVPDVPKSMAWCENSICVGFKRDYYLIRVDGKGSIKELFPTGKQLEPLVAPLADGKVAVGQDDLTVVLNEEGICTQKCALNWTDIPVAMEHQPPYIIAVLPRYVEIRTFEPRLLVQSIELQRPRFITSGGSNIIYVASNHFVWRLIPVPMATQIQQLLQDKQFELALQLAEMKDDSDSEKQQQIHHIKNLYAFNLFCQKRFDESMQVFAKLGTDPTHVMGLYPDLLPTDYRKQLQYPNPLPVLSGAELEKAHLALIDYLTQKRSQLVKKLNDSDHQSSTSPLMEGTPTIKSKKKLLQIIDTTLLKCYLHTNVALVAPLLRLENNHCHIEESEHVLKKAHKYSELIILYEKKGLHEKALQVLVDQSKKANSPLKGHERTVQYLQHLGTENLHLIFSYSVWVLRDFPEDGLKIFTEDLPEVESLPRDRVLGFLIENFKGLAIPYLEHIIHVWEETGSRFHNCLIQLYCEKVQGLMKEYLLSFPAGKTPVPAGEEEGELGEYRQKLLMFLEISSYYDPGRLICDFPFDGLLEERALLLGRMGKHEQALFIYVHILKDTRMAEEYCHKHYDRNKDGNKDVYLSLLRMYLSPPSIHCLGPIKLELLEPKANLQAALQVLELHHSKLDTTKALNLLPANTQINDIRIFLEKVLEENAQKKRFNQVLKNLLHAEFLRVQEERILHQQVKCIITEEKVCMVCKKKIGNSAFARYPNGVVVHYFCSKEVNPADT
Take B3: the binding result in assay [1] was “binds”.

B4: Vps39 (construct of the co-precipitations not shown) (protein, UniProt Q96JC1 1-886)
chain: B3 chain
Regarding B4, the binding entry in assay [3], in assay [4] and in assay [5] was “binds” in each case.

For the origin of these results see article PMC5379943.
